Reference: doi:10.1101/2023.04.22.537027 (bioRxiv, 2023)
Results are given in words; binding and its absence hold for the method and conditions named. Binding can be weak; no strength is given. For some assays here: In cells and extracts the contact can be indirect.

Protein sequences, listed by entry. Tags and fused reporters are not part of them. Lines headed by an entry give the natural chain unless they say otherwise; changes in a name come on top.
UniProt P32457: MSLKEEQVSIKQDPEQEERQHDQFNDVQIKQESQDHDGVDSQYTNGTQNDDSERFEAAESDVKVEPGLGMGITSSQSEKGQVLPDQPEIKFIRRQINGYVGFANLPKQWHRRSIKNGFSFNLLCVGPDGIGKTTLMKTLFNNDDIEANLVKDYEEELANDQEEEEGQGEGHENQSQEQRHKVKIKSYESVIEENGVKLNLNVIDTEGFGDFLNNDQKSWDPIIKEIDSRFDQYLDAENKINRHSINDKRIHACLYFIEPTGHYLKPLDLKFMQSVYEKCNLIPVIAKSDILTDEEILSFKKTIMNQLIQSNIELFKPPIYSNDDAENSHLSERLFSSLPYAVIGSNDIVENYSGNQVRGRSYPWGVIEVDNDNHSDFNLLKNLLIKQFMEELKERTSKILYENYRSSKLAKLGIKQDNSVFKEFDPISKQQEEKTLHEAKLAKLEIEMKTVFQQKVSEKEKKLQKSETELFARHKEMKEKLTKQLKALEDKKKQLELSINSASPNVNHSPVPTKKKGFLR

What was measured:
[1] = molecular target: Cdc3G (GTPase domain of Cdc3) (S. cerevisiae) (UniProt P32457); assay: crystal structure
[2] = molecular target: Cdc3G (GTPase domain of Cdc3) (S. cerevisiae) (UniProt P32457); assay: SEC-MALS
[3] = molecular target: Cdc3G (GTPase domain of Cdc3) (S. cerevisiae) (UniProt P32457); assay: co-purification
[4] = molecular target: Cdc3G (GTPase domain of Cdc3) (S. cerevisiae) (UniProt P32457); assay: crystal structure; remark: listed apart in the source
[5] = molecular target: Cdc3G (GTPase domain of Cdc3) (S. cerevisiae) (UniProt P32457); assay: SEC-MALS; remark: listed apart in the source

Row | binding [1] | binding [2] | binding [3] | binding [4] | binding [5] | Molecule
1 | binds | binds | binds | – | – | Cdc10G (GTPase domain of Cdc10) (from UniProt P25342) (domain or fragment)
2 | – | – | – | binds | binds | Cdc10_(Δ1-10) (domain or fragment) SYVGFDTITNQIEHRLLKKGFQFNIMVVGQSGLGKSTLINTLFASHLIDSATGDDISALPVTKTTEMKISTHTLVEDRVRLNINVIDTPGFGDFIDNSKAWEPIVKYIKEQHSQYLRKELTAQRERFITDTRVHAILYFLQPNGKELSRLDVEALKRLTEIANVIPVIGKSDTLTLDERTEFRELIQNEFEKYNFKIYPYDSEELTDEELELNRSVRSIIPFAVVGSENEIEINGETFRGRKTRWSAINVEDINQCDFVYLREFLIRTHLQDLIETTSYIHYEGFRARQLIALKENANSRSSAHMSSNAIQR
